The values that follow come from PMC5996148.

Chains of the proteins cited; added tags and fusions are not shown.
UniProt Q8TDD1, whole entry: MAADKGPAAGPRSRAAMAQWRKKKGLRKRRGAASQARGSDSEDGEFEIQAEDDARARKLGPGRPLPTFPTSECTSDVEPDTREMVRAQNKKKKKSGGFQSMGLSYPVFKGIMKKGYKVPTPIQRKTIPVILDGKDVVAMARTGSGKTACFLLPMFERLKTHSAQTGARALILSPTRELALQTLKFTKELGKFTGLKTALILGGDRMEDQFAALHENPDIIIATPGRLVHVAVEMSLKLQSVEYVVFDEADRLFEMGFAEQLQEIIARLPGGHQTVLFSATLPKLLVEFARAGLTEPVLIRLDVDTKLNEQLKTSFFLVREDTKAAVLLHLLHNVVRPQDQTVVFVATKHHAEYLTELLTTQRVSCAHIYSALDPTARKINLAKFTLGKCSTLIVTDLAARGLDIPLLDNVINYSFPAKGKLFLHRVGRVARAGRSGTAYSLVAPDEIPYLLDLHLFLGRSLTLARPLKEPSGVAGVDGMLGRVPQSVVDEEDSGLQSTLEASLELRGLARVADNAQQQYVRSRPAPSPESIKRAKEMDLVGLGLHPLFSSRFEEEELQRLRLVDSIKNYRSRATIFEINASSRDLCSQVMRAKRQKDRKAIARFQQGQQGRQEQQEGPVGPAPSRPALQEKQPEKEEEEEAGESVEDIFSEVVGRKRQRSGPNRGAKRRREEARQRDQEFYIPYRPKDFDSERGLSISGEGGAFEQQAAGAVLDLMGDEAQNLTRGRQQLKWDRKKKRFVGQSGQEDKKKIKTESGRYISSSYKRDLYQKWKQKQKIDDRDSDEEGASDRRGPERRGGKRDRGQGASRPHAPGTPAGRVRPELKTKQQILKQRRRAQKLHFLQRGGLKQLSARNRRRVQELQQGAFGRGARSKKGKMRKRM

Values joined by “and” are separate entries in the source; they are usually repeats but may differ in a detail not shown here. Equal entries are not always repeated. This is one part of the list. For some assays here: The source does not settle which construct or isoform was used.

Among the test systems are DBNDD1 (human); DBNDD2 (human); DCPS (human); DCTD (human); DCTN2 (human); DCUN1D3 (human); DDAH2 (human); DEFA6 (human); DEFB1 (human); DEFB119 (human); DFFA (human); DFNA5 (human).
Common to all, as to test: protein microarray (ProtoArray v5.0), streptavidin-Alexa Fluor 647
What all share (details): 3'-biotin; 20 mM Tris (pH 7.5), 5 mM MgCl2, 100 mM KCl, 0.1% Tween-20, A/T-rich and random oligonucleotide blockers; temperature not stated; high values mean tight binding

For assay [1], the system named is Cytoplasmic dynein 1 heavy chain 1 (human).
In assay [2] the test system is Cytosolic non-specific dipeptidase (human).
For assay [3], the system named is DAZ-associated protein 2 (human).
Assay [4] concerns DCN1-like protein 1 (human).
The next assay deals with T1, DCX (UniProt O43602).
T1 sequence: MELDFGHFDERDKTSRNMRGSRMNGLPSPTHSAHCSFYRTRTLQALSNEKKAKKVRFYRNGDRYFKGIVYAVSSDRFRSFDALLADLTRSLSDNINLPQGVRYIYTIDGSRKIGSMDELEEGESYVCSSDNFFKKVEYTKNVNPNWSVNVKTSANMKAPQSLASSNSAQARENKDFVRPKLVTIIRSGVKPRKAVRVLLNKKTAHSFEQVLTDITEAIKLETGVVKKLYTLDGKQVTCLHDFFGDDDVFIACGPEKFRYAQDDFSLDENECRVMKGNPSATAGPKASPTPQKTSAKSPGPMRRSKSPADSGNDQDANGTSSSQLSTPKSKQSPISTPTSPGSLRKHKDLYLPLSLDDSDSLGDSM

The target in another assay is T2, DDX21 (UniProt Q9NR30).
T2 sequence: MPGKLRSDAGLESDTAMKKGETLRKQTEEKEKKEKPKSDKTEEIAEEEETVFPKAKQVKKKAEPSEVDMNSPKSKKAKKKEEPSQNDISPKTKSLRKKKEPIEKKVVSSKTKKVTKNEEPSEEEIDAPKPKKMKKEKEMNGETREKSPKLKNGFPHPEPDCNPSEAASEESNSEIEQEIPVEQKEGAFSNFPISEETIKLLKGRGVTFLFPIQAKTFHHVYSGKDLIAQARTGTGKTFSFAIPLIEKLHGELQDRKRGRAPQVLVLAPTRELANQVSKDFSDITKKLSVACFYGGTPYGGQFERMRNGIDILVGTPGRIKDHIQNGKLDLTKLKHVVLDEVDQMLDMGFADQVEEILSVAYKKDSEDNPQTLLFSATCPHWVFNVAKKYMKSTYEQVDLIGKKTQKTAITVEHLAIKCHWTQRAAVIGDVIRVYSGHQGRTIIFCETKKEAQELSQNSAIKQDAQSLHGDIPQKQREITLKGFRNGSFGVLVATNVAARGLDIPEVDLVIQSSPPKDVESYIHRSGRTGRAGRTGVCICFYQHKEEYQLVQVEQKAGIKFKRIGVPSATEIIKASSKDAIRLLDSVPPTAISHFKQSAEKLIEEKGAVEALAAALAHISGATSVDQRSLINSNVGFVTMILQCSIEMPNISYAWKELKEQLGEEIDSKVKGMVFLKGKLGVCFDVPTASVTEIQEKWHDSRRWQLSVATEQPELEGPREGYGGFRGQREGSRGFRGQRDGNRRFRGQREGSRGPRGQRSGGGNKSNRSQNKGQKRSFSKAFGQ

For the next assay, the target named is DDX54 (UniProt Q8TDD1).
A further assay has as its target T3, DDX55 (UniProt Q8NHQ9).
T3 sequence: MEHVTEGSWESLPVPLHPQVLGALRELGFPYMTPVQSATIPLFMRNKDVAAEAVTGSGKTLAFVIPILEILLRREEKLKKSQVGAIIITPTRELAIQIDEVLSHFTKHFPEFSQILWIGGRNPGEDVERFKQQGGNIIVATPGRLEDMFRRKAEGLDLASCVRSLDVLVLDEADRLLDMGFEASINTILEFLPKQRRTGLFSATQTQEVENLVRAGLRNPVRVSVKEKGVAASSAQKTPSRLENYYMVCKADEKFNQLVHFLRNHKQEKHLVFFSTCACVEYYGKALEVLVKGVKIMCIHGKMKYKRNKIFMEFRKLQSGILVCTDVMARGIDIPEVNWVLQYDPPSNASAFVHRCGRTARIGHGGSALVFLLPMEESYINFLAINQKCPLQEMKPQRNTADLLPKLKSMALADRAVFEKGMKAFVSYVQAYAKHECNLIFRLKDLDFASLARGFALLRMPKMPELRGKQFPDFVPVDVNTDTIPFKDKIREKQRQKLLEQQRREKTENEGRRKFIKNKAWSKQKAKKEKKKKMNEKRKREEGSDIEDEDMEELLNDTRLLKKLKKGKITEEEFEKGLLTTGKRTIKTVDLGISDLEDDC

Regarding “GGTGACAGGGGTATGGGGAGGGG [G4-2 biotinylated (Ct1)]”, the binding signal in assay [1] is -0.389 z-score; in assay [2], -0.39 z-score; in [3], -0.385 z-score; with DBNDD1 (human), -0.381 z-score; with DBNDD2 (human) it was -0.392 z-score; in assay [4], -0.373 z-score. The binding signal in the assay with DCPS (human) is -0.377 z-score; in the assay on DCTD (human) it was -0.384 z-score; in the assay with DCTN2 (human), -0.385 z-score; with DCUN1D3 (human), -0.396 z-score; with DCX, 3.73 z-score; with DDAH2 (human), -0.372 z-score. The binding signal with DDX21 is 6.44 z-score; with DDX54 it was 5.87 z-score; with DDX55, 5.51 z-score; with DEFA6 (human) it was -0.386 z-score; in the assay on DEFB1 (human), -0.372 z-score; in the assay on DEFB119 (human), -0.365 z-score. In addition, the binding signal is -0.404 z-score and -0.401 z-score with DFFA (human); -0.393 z-score with DFNA5 (human).
